Source: patent publication US12162937B2, “Methods of treating an inflammatory disorder by administering an antibody which binds to a connexin CX43 hemichannel” (BOARD OF REGENTS OF THE UNIVERSITY OF TEXAS SYSTEM, priority 2013, dated 2024)
“Also recorded” adds a separate entry of the source.

Protein sequences, listed by entry. Tags and fused reporters are not part of them.
UniProt P23242, whole entry: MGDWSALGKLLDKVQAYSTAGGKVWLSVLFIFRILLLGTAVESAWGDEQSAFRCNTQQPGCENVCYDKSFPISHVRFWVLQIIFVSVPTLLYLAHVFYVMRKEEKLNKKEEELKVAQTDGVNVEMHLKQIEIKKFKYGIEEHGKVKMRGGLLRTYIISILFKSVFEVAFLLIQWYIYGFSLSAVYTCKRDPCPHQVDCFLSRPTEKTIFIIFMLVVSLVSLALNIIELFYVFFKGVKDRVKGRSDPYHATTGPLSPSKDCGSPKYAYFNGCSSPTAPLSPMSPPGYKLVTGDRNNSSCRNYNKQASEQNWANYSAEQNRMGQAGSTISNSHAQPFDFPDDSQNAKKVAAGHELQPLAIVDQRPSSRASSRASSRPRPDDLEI

Target: Cx43 hemichannels (Mus musculus, UniProt P23242)
Assay: Ethidium bromide dye uptake in MLO-Y4 osteocytic cells treated with AD
Format: cell-based
Design: endogenous in cells; host or cells: MLO-Y4 osteocytic cells
Details: 20 μM AD for 30 min, presence of calcium
Protocol: Study was carried out in calcium conditions. Low calcium conditions were used as control (opens hemichannels).
Methods for determining if a reagent opens hemichannels include one or more of the following steps: • (a) Isolating, obtaining, or producing a connexin expressing cell or cell line. For example, isolating primary osteocytes from calvcria. Other cell types can be isolated using other methods known in the art. In certain aspects calvarial osteocytes are isolated from animals (e.g., 16-day embryonic chicken calvaria or new-born mice). Animals are decapitated and calvarial bone is dissected and quickly dipped in 70% alcohol. […] Permeability tracer uptake is determined by detecting the amount of tracer inside the cells. […] Fluorescence can be recorded at regions of interest in different cells with an eclipse filter on a microscope based on the wavelength of the fluorescence of the tracer or other probe(s) being used. […] The collected data can be illustrated as fold difference of initial fluorescence and fluorescence at the time of interest versus the basal fluorescence.
For snapshot images, cells can be exposed to permeability tracer for 5-10 minutes, rinsed multiple times with PBS, and fixed with formaldehyde. In certain aspects, at least three microphotographs of fluorescence fields are taken with a microscope. […] The average of pixel density of random cells is measured. […]

With `NCCCC(O)(P(=O)(O)O)P(=O)(O)O` [AD, alendronate] the “opening of osteocytic Cx43 hemichannels (ethidium bromide dye uptake)” value was “opening of osteocytic hemichannels induced by AD; also recorded: opened”.
